Here are results for two substances from PMC3855701.

Amino acid sequences for entries named in this document (tags omitted). Residues count along the entry.
UniProt P63038, residues 27-573: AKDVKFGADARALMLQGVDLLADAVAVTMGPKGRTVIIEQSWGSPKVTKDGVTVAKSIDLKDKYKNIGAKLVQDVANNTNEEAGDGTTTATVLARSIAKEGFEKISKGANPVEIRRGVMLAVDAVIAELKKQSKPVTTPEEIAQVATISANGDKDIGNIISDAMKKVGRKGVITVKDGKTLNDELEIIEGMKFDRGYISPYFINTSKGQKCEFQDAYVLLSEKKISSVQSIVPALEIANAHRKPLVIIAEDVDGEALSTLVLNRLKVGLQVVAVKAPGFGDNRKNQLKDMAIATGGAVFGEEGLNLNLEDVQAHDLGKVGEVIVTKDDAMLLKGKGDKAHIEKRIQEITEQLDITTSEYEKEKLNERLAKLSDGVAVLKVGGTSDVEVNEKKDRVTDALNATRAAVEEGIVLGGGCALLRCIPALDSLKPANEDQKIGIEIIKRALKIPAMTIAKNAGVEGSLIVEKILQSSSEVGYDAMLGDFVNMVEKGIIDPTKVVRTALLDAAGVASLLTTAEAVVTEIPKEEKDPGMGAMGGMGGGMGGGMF
UniProt P38647, residues 47-679: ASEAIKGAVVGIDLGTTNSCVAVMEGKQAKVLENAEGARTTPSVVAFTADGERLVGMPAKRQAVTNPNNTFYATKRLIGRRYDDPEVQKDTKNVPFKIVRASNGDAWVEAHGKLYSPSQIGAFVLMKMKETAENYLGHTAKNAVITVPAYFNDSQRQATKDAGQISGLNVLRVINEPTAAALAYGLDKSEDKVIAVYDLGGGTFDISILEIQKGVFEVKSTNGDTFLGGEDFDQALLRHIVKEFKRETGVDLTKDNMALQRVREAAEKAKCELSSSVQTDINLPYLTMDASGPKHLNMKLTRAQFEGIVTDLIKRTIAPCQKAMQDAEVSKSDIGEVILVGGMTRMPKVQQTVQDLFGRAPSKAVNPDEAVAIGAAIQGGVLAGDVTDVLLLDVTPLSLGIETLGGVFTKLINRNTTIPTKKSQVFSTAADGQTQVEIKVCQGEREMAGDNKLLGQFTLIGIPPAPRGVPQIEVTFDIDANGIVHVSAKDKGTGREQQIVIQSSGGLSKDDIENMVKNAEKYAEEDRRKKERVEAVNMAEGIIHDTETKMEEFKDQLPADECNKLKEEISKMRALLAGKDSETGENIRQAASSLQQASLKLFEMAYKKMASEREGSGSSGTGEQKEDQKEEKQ

These are yes or no findings as the source states them, for the method shown. Binding seen in cells or lysates may run through a third protein. Some results given as binding are weak or reduced against the parent protein; the word gives no strength.

The target of test [1] is T1, Mitochondrial transcription factor A (mouse (endogenous in quadriceps femoris muscle)) (UniProt P40630).
T1 sequence: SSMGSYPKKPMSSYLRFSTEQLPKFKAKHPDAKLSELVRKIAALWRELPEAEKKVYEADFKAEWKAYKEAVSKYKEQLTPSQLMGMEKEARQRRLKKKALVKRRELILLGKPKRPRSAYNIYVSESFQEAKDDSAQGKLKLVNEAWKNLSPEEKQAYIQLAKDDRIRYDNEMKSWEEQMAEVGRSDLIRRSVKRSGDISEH
Briefly: condition: only sample heat denatured at 95°C before the immunoprecipitation; co-IP; as the TFAM immunoprecipitation, but the sample was heat denatured at 95°C (5 minutes) before the immunoprecipitation (control, Figure S3C).

Test [2] deals with T1, Mitochondrial transcription factor A (mouse (endogenous in quadriceps femoris muscle)). Briefly: co-IP; anti-TFAM antibody on protein A/G plus agarose beads; isolated mitochondria lysates (200 ug) of quadriceps femoris muscle solubilized with 1% n-dodecyl maltoside, overnight at 4°C; eluted with 1% SDS; blots for GRP75 and HSP60; Sod2+/+ and Sod2+/- mice, sedentary or exercise trained.

For the substance HSP60 (from UniProt P63038 27-573), the results for the binding result in test [1] and in test [2] were “no binding” and “binds”, respectively.

With GRP75 (from UniProt P38647 47-679), the values for the binding entry in test [1] and in test [2] were “no binding” and “binds”, respectively.
